# Source: the supplement of paper PMC8728848
# This is one part of the list.
# What was measured:
# Assay in all cases: glycan array binding signal (z-score within array); higher = stronger binding
# Details in all cases: glycan notation: IUPAC condensed, linker removed
# [1] = biological target: Neu5Ac(a2-3)[GalNAc(b1-4)]Gal(b1-4)GlcNAc(b1-3)GalNAc
# Outline: (§1)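 From the Consortium for Functional Glycomics database, 3228 arrays were curated, keeping only those whose protein sequence was available. Binding is given as a within-array Z-score averaged across arrays sharing a protein sequence and across linkers. Negative Z-scores can be read as non-binding.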
# [2] = biological target: Neu5Ac(a2-3)[Neu5Ac(a2-6)]GalNAc
# Outline: as §1
# [3] = biological target: Neu5Ac(a2-6)Gal
# Outline: as §1
# [4] = biological target: Neu5Ac(a2-6)Gal(b1-3)GlcNAc(b1-3)[Gal(b1-4)GlcNAc(b1-6)]Gal(b1-4)Glc
# Outline: as §1
# [5] = biological target: Neu5Ac(a2-6)Gal(b1-4)Glc
# Outline: as §1
# [6] = biological target: Neu5Ac(a2-6)Gal(b1-4)GlcNAc
# Outline: as §1
# [7] = biological target: Neu5Ac(a2-6)Gal(b1-4)GlcNAc(b1-2)Man(a1-3)Man(b1-4)GlcNAc(b1-4)GlcNAc
# Outline: as §1
# [8] = biological target: Neu5Ac(a2-6)Gal(b1-4)GlcNAc(b1-2)Man(a1-3)[Gal(b1-4)GlcNAc(b1-2)Man(a1-6)]Man(b1-4)GlcNAc(b1-4)GlcNAc
# Outline: as §1
# [9] = biological target: Neu5Ac(a2-6)Gal(b1-4)GlcNAc(b1-2)Man(a1-3)[GlcNAc(b1-2)Man(a1-6)]Man(b1-4)GlcNAc(b1-4)GlcNAc
# Outline: as §1
# [10] = biological target: Neu5Ac(a2-6)Gal(b1-4)GlcNAc(b1-2)Man(a1-3)[GlcNAc(b1-2)Man(b1-4)GlcNAc(b1-2)Man(a1-6)]Man(b1-4)GlcNAc(b1-4)GlcNAc
# Outline: as §1
# [11] = biological target: Neu5Ac(a2-6)Gal(b1-4)GlcNAc(b1-2)Man(a1-3)[Man(a1-6)]Man(b1-4)GlcNAc(b1-4)GlcNAc
# Outline: as §1
# [12] = biological target: Neu5Ac(a2-6)Gal(b1-4)GlcNAc(b1-2)Man(a1-3)[Neu5Ac(a2-6)Gal(b1-4)GlcNAc(b1-2)Man(a1-6)]Man(b1-4)GlcNAc(b1-4)GlcNAc
# Outline: as §1
# [13] = biological target: Neu5Ac(a2-6)Gal(b1-4)GlcNAc(b1-2)Man(a1-6)Man(b1-4)GlcNAc(b1-4)GlcNAc
# Outline: as §1
# [14] = biological target: Neu5Ac(a2-6)Gal(b1-4)GlcNAc(b1-2)Man(a1-6)[Gal(b1-4)GlcNAc(b1-2)Man(a1-3)]Man(b1-4)GlcNAc(b1-4)GlcNAc
# Outline: as §1
# [15] = biological target: Neu5Ac(a2-6)Gal(b1-4)GlcNAc(b1-2)Man(a1-6)[GlcNAc(b1-2)Man(a1-3)]Man(b1-4)GlcNAc(b1-4)GlcNAc
# Outline: as §1
# [16] = biological target: Neu5Ac(a2-6)Gal(b1-4)GlcNAc(b1-2)Man(a1-6)[Man(a1-3)]Man(b1-4)GlcNAc(b1-4)GlcNAc
# Outline: as §1
# [17] = biological target: Neu5Ac(a2-6)Gal(b1-4)GlcNAc(b1-3)Gal(b1-3)GlcNAc
# Outline: as §1
# [18] = biological target: Neu5Ac(a2-6)Gal(b1-4)GlcNAc(b1-3)Gal(b1-4)GlcNAc
# Outline: as §1
# [19] = biological target: Neu5Ac(a2-6)Gal(b1-4)GlcNAc(b1-3)Gal(b1-4)GlcNAc(b1-3)Gal(b1-4)GlcNAc
# Outline: as §1
# [20] = biological target: Neu5Ac(a2-6)Gal(b1-4)GlcNAc(b1-3)Gal(b1-4)[Fuc(a1-3)]GlcNAc(b1-3)Gal(b1-4)[Fuc(a1-3)]GlcNAc
# Outline: as §1
# [21] = biological target: Neu5Ac(a2-6)Gal(b1-4)GlcNAc(b1-3)GalNAc
# Outline: as §1
# [22] = biological target: Neu5Ac(a2-6)Gal(b1-4)GlcNAc6S
# Outline: as §1
# [23] = biological target: Neu5Ac(a2-6)GalNAc
# Outline: as §1
# [24] = biological target: Neu5Ac(a2-6)GalNAc(b1-4)GlcNAc
# Outline: as §1
# [25] = biological target: Neu5Ac(a2-6)GlcNAc(b1-4)GlcNAc
# Outline: as §1
# [26] = biological target: Neu5Ac(a2-6)GlcNAc(b1-4)GlcNAc(b1-4)GlcNAc
# Outline: as §1
# [27] = biological target: Neu5Ac(a2-8)Neu5Ac
# Outline: as §1
# [28] = biological target: Neu5Ac(a2-8)Neu5Ac(a2-3)Gal(b1-3)GalNAc(b1-4)[Neu5Ac(a2-8)Neu5Ac(a2-3)]Gal(b1-4)Glc
# Outline: as §1
# [29] = biological target: Neu5Ac(a2-8)Neu5Ac(a2-3)Gal(b1-4)Glc
# Outline: as §1
# [30] = biological target: Neu5Ac(a2-8)Neu5Ac(a2-3)[Gal(b1-3)GalNAc(b1-4)]Gal(b1-4)Glc
# Outline: as §1
# [31] = biological target: Neu5Ac(a2-8)Neu5Ac(a2-3)[GalNAc(b1-4)]Gal(b1-4)Glc
# Outline: as §1
# [32] = biological target: Neu5Ac(a2-8)Neu5Ac(a2-8)Neu5Ac
# Outline: as §1
# [33] = biological target: Neu5Ac(a2-8)Neu5Ac(a2-8)Neu5Ac(a2-3)Gal(b1-4)Glc
# Outline: as §1
# [34] = biological target: Neu5Ac(a2-8)Neu5Ac(a2-8)Neu5Ac(a2-3)[GalNAc(b1-4)]Gal(b1-4)Glc
# Outline: as §1
# [35] = biological target: Neu5Ac(a2-8)Neu5Ac(a2-8)Neu5Ac(a2-8)Neu5Ac(a2-3)[GalNAc(b1-4)]Gal(b1-4)Glc
# Outline: as §1
# [36] = biological target: Neu5Ac(b2-6)Gal(b1-4)GlcNAc
# Outline: as §1
# [37] = biological target: Neu5Ac(b2-6)GalNAc
# Outline: as §1
# [38] = biological target: Neu5Ac9Ac(a2-3)Gal(b1-3)GlcNAc
# Outline: as §1
binder,measurement,setting,value
"PGP3 (Chlamydia trachomatis), P0CE18 (protein) MGNSGFYLYNTQNCVFADNIKVGQMTEPLKDQQIILGTTSTPVAAKMTASDGISLTVSNNPSTNASITIGLDAEKAYQLILEKLGDQILGGIADTIVDSTVQDILDKITTDPSLGLLKAFNNFPITNKIQCNGLFTPRNIETLLGGTEIGKFTVTPKSSGSMFLVSADIIASRMEGGVVLALVREGDSKPYAISYGYSSGVPNLCSLRTRIINTGLTPTTYSLRVGGLESGVVWVNALSNGNDILGITNTSNVSFLEVIPQTNA",glycan array binding signal (z-score),[1],0.646
same,glycan array binding signal (z-score),[2],0.358
same,glycan array binding signal (z-score),[3],0.553
same,glycan array binding signal (z-score),[4],0.508
same,glycan array binding signal (z-score),[5],-0.027
same,glycan array binding signal (z-score),[6],0.565
same,glycan array binding signal (z-score),[7],0.871
same,glycan array binding signal (z-score),[8],1.21
same,glycan array binding signal (z-score),[9],0.031
same,glycan array binding signal (z-score),[10],0.983
same,glycan array binding signal (z-score),[11],-0.215
same,glycan array binding signal (z-score),[12],0.306
same,glycan array binding signal (z-score),[13],-0.576
same,glycan array binding signal (z-score),[14],-0.106
same,glycan array binding signal (z-score),[15],0.791
same,glycan array binding signal (z-score),[16],-0.005
same,glycan array binding signal (z-score),[17],-0.316
same,glycan array binding signal (z-score),[18],1.37
same,glycan array binding signal (z-score),[19],-0.565
same,glycan array binding signal (z-score),[20],0.136
same,glycan array binding signal (z-score),[21],-0.403
same,glycan array binding signal (z-score),[22],-0.798
same,glycan array binding signal (z-score),[23],-1.18
same,glycan array binding signal (z-score),[24],0.096
same,glycan array binding signal (z-score),[25],-1.37
same,glycan array binding signal (z-score),[26],-0.842
same,glycan array binding signal (z-score),[27],-0.486
same,glycan array binding signal (z-score),[28],1.02
same,glycan array binding signal (z-score),[29],-0.424
same,glycan array binding signal (z-score),[30],0.121
same,glycan array binding signal (z-score),[31],-0.121
same,glycan array binding signal (z-score),[32],1.11
same,glycan array binding signal (z-score),[33],2.79
same,glycan array binding signal (z-score),[34],-0.269
same,glycan array binding signal (z-score),[35],0.056
same,glycan array binding signal (z-score),[36],-1.25
same,glycan array binding signal (z-score),[37],0.49
same,glycan array binding signal (z-score),[38],2.73

# Some of the entries so far, as tab-separated lines.
binder	measurement	setting	value
PGP3 (Chlamydia trachomatis), P0CE18 (protein) MGNSGFYLYNTQNCVFADNIKVGQMTEPLKDQQIILGTTSTPVAAKMTASDGISLTVSNNPSTNASITIGLDAEKAYQLILEKLGDQILGGIADTIVDSTVQDILDKITTDPSLGLLKAFNNFPITNKIQCNGLFTPRNIETLLGGTEIGKFTVTPKSSGSMFLVSADIIASRMEGGVVLALVREGDSKPYAISYGYSSGVPNLCSLRTRIINTGLTPTTYSLRVGGLESGVVWVNALSNGNDILGITNTSNVSFLEVIPQTNA	glycan array binding signal (z-score)	[24]	0.096
same	glycan array binding signal (z-score)	[25]	-1.37
same	glycan array binding signal (z-score)	[26]	-0.842
same	glycan array binding signal (z-score)	[27]	-0.486
same	glycan array binding signal (z-score)	[28]	1.02
same	glycan array binding signal (z-score)	[29]	-0.424
same	glycan array binding signal (z-score)	[30]	0.121
